Data: the supplement of paper PMC10849652
The other results are listed elsewhere or left out.

By UniProt entry, the sequences of proteins in these tests, tags left out. Where a name states a change or a piece, a line headed by the entry shows the natural chain unless it says otherwise.
UniProt Q86YI8: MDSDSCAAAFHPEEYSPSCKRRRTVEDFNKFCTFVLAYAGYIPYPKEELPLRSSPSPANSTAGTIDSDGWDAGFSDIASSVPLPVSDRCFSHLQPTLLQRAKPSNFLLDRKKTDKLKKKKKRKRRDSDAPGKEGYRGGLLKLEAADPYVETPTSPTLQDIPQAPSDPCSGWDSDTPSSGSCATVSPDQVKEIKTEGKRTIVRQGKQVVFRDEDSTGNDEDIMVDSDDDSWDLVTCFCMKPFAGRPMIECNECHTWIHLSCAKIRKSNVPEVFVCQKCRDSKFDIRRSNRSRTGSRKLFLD
UniProt Q8N4B1: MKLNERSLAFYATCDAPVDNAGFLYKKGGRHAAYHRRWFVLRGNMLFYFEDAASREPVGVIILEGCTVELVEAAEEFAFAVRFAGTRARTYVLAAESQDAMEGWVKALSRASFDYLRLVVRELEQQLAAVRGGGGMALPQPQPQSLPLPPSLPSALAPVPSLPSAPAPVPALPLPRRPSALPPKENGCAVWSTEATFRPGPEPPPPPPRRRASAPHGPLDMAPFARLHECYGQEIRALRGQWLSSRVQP
UniProt Q8NDX5: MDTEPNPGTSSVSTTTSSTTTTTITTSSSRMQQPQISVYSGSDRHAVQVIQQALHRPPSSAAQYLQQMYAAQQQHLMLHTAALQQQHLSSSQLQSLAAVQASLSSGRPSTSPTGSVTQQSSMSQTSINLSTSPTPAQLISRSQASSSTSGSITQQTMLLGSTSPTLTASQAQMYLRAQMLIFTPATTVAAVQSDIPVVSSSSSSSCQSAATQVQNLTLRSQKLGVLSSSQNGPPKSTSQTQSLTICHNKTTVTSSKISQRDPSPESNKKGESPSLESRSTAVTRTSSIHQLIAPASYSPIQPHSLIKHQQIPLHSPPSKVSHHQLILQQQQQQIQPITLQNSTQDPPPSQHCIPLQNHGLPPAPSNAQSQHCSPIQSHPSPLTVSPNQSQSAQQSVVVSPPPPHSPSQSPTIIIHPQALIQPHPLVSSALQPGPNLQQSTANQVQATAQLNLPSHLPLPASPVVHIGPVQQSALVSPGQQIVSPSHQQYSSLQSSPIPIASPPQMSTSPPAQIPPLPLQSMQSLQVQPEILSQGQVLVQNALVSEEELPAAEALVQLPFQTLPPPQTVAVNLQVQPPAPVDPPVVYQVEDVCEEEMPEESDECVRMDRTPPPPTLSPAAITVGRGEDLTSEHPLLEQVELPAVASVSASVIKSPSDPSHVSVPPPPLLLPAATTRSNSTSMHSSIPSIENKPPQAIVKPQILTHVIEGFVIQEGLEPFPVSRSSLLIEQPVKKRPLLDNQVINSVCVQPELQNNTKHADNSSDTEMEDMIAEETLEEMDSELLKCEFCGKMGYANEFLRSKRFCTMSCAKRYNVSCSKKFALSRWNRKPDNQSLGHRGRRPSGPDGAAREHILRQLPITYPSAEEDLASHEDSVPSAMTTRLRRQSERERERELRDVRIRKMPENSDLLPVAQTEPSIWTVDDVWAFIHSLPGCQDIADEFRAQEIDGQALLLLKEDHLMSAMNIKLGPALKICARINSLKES
UniProt O75167: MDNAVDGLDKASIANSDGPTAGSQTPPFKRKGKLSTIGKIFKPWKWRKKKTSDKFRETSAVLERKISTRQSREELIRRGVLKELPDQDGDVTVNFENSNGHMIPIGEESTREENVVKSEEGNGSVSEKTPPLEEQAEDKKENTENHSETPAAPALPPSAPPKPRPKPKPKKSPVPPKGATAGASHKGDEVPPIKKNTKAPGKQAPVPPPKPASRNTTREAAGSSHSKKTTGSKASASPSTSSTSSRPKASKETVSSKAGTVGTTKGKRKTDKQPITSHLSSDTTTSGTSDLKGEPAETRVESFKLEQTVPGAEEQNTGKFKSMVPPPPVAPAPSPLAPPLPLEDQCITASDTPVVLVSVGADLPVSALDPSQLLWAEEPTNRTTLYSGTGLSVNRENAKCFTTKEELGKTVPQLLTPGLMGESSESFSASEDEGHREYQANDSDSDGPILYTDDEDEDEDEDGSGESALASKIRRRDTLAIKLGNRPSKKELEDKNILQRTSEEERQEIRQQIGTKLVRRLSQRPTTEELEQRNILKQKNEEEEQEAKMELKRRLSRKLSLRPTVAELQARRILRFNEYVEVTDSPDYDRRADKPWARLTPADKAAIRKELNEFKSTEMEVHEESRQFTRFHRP
UniProt Q9C010: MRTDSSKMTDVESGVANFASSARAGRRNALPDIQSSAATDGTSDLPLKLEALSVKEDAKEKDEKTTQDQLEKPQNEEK
UniProt Q8IXK0: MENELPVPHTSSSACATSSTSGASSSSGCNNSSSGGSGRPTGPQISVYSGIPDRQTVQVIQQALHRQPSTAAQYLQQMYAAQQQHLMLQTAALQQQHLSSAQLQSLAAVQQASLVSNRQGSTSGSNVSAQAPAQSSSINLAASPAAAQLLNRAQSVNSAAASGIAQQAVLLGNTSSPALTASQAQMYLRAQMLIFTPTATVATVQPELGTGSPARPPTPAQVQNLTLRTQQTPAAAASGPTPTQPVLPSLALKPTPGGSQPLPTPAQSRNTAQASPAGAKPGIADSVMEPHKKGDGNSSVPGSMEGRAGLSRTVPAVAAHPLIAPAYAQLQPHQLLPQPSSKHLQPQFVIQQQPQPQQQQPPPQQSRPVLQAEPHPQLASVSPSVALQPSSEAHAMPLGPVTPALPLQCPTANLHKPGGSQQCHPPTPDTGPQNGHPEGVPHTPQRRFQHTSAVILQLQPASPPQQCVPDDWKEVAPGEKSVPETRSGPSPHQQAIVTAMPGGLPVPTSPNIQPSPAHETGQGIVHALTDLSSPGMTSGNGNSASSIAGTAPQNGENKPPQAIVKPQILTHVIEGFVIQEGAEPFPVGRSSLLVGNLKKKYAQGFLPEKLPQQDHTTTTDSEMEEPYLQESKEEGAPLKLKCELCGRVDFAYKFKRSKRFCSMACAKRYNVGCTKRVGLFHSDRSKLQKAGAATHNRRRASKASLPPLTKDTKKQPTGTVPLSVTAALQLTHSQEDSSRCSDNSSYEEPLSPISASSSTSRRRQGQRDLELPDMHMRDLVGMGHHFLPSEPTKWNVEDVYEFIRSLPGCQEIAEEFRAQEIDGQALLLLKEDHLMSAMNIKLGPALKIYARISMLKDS
UniProt Q9HB75: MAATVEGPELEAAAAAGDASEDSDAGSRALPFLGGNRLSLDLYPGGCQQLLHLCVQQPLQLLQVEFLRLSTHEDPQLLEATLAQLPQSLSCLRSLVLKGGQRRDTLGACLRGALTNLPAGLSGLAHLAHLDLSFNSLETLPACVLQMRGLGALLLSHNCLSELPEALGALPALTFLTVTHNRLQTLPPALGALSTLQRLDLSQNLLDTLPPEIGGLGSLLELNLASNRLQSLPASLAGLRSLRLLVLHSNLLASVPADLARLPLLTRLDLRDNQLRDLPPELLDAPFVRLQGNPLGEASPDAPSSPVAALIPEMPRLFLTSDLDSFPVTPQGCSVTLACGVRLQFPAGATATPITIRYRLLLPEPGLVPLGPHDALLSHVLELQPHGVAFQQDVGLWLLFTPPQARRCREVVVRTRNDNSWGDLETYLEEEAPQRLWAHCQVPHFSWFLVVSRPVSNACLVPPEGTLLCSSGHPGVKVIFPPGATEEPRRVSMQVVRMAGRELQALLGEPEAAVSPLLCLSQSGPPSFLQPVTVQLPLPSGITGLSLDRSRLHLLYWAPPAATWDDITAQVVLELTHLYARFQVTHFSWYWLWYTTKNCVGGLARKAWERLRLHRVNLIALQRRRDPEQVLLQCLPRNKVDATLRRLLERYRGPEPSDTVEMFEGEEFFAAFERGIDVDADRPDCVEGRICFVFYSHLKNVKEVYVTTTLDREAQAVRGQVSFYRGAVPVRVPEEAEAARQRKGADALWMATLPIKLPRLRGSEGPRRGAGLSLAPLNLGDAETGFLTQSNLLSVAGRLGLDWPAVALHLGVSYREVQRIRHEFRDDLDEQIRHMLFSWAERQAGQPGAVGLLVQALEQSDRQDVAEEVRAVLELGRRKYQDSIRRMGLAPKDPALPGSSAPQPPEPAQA
UniProt Q8N2A8: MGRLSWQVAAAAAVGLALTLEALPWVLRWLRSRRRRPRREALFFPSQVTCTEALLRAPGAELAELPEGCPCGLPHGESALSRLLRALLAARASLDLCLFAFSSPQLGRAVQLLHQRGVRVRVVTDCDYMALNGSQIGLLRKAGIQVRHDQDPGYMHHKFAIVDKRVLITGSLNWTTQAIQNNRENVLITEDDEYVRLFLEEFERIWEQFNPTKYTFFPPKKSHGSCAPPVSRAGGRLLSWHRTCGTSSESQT
UniProt Q7Z7B1: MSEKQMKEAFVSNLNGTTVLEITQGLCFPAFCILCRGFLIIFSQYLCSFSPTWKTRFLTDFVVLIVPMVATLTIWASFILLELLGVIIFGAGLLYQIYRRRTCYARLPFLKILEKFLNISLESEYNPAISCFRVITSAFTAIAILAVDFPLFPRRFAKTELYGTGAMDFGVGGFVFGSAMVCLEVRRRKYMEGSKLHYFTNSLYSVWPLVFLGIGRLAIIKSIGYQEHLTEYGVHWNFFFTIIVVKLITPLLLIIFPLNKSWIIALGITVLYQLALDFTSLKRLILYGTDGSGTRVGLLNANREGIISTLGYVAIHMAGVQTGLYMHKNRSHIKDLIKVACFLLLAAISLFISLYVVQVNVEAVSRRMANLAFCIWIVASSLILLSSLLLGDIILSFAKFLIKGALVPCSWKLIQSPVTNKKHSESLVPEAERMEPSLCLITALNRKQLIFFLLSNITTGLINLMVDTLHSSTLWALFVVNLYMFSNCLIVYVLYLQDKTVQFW
UniProt Q96JA3: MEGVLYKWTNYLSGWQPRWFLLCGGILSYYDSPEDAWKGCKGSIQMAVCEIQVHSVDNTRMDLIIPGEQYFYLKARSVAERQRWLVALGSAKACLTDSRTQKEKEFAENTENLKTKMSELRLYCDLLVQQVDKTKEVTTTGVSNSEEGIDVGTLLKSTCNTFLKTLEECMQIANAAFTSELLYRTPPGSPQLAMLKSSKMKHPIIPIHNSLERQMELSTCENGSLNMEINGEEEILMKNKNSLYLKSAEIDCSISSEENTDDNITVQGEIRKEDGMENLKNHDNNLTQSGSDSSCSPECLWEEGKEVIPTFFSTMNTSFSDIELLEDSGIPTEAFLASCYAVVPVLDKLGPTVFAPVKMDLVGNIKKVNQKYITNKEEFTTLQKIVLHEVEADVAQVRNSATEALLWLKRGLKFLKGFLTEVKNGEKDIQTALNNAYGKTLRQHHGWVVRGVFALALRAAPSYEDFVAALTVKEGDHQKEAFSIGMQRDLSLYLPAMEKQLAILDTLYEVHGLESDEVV
UniProt Q6ZUJ8: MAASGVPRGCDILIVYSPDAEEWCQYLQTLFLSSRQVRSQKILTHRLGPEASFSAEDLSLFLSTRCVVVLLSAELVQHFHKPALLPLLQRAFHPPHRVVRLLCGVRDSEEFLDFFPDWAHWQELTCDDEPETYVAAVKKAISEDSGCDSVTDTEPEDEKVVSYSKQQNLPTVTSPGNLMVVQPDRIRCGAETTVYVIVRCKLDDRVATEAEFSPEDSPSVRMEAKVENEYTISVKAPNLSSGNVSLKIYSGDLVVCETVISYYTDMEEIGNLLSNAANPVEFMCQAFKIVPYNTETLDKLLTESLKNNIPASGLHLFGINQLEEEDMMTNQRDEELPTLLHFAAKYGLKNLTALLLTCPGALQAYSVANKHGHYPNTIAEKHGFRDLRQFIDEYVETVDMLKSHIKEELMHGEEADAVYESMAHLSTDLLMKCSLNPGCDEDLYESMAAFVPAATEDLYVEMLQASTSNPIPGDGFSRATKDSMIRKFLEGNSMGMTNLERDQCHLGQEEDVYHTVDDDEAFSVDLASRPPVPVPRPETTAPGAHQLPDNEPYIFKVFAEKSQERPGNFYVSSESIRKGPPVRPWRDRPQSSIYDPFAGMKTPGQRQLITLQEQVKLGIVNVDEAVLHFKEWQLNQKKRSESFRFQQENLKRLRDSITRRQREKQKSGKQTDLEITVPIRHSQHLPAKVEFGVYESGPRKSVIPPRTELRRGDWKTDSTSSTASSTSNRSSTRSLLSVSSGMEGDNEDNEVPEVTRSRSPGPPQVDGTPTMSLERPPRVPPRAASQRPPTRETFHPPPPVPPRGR

Experiments:
Assay in all cases: log2 fold change, soluble protein after heating vs DMSO (PISA); higher = thermal stabilisation; K562 lysate, 10 uM; active = over 0.2 and 3.5 SD of the protein, either way, in both replicates (recomputed)
alvocidib = compound: CN1CC[C@H](c2c(O)cc(O)c3c(=O)cc(-c4ccccc4Cl)oc23)[C@H](O)C1 [alvocidib]
How it was run: (§1)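 Thermal stability, expressed as log-two fold change relative to solvent controls, is given from duplicates. Crude K562 extract in PBS pH 7.4 with 1 mM MgCl2, at 1 mg/mL protein, was treated with 10 μM compound for 30 min and heated in aliquots for 3 min across 48°C-58°C. After pooling, adjustment to 0.5% NP-40 at 4°C and centrifugation at 21,000xg for 90 min, supernatant protein was measured by TMTpro 16plex LC-MS/MS with channel sums equalised.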

Tubastatin A = compound: CN1CCc2c(c3ccccc3n2Cc2ccc(C(=O)NO)cc2)C1 [Tubastatin A]
How it was run: as §1

[1] = compound: CNc1nc(-c2ccc3c(N)n[nH]c3c2)cc(N2C[C@@H](C(=O)NC3CCCCC3)CC[C@H]2C)n1
How it was run: as §1

alisertib = compound: COc1cc(Nc2ncc3c(n2)-c2ccc(Cl)cc2C(c2c(F)cccc2OC)=NC3)ccc1C(=O)O [alisertib]
How it was run: as §1

gefitinib = compound: COc1cc2ncnc(Nc3ccc(F)c(Cl)c3)c2cc1OCCCN1CCOCC1 [gefitinib]
How it was run: as §1

[2] = compound: C[C@H](C1=CC=C(C=C1)C(=O)NC2=C3C=CNC3=NC=C2)N
How it was run: as §1

duvelisib = compound: C[C@H](Nc1ncnc2nc[nH]c12)c1cc2cccc(Cl)c2c(=O)n1-c1ccccc1 [duvelisib]
How it was run: as §1

gandotinib = compound: Cc1cc(Nc2cc(CN3CCOCC3)c3nc(C)c(Cc4ccc(Cl)cc4F)n3n2)n[nH]1 [gandotinib]
How it was run: as §1

[3] = compound: Cc1cccc(CC(=O)N2CCc3c2ccc(-c2cn(C)c4ncnc(N)c24)c3F)n1
How it was run: as §1

[4] = compound: COc1cc2nc(-c3cc(F)ccc3O)nc(N[C@@H]3CNC[C@H]3C(C)(C)O)c2cc1OC
How it was run: as §1

lapatinib = compound: CS(=O)(=O)CCNCc1ccc(-c2ccc3ncnc(Nc4ccc(OCc5cccc(F)c5)c(Cl)c4)c3c2)o1 [lapatinib]
How it was run: as §1

pictilisib = compound: CS(=O)(=O)N1CCN(Cc2cc3nc(-c4cccc5[nH]ncc45)nc(N4CCOCC4)c3s2)CC1 [pictilisib]
How it was run: as §1

crizotinib = compound: C[C@@H](Oc1cc(-c2cnn(C3CCNCC3)c2)cnc1N)c1c(Cl)ccc(F)c1Cl [crizotinib]
How it was run: as §1

doramapimod = compound: Cc1ccc(-n2nc(C(C)(C)C)cc2NC(=O)Nc2ccc(OCCN3CCOCC3)c3ccccc23)cc1 [doramapimod]
How it was run: as §1

bafetinib = compound: Cc1ccc(NC(=O)c2ccc(CN3CC[C@H](N(C)C)C3)c(C(F)(F)F)c2)cc1Nc1nccc(-c2cncnc2)n1 [bafetinib]
How it was run: as §1

[5] = compound: CNC(=O)C1=CC=CC=C1NC2=NC(=NC=C2Cl)NC3=C(C=C(C=C3)N4CCOCC4)OC
How it was run: as §1

defactinib = compound: CNC(=O)c1ccc(Nc2ncc(C(F)(F)F)c(NCc3nccnc3N(C)S(C)(=O)=O)n2)cc1 [defactinib]
How it was run: as §1

encorafenib = compound: COC(=O)N[C@@H](C)CNc1nccc(-c2cn(C(C)C)nc2-c2cc(Cl)cc(NS(C)(=O)=O)c2F)n1 [encorafenib]
How it was run: as §1

[6] = compound: COC(=O)[C@H](CCSC)NC(=O)C1=C(C=C(C=C1)NC[C@H](CS)N)C2=CC=CC=C2
How it was run: as §1

tozasertib = compound: Cc1cc(Nc2cc(N3CCN(C)CC3)nc(Sc3ccc(NC(=O)C4CC4)cc3)n2)n[nH]1 [tozasertib]
How it was run: as §1

Measured: log2 fold change

PIM2 (UniProt Q9P1W9)
inactive: alvocidib 0.076 | Tubastatin A -0.07 | [1] 0 | alisertib -0.083 | gefitinib -0.201 | [2] 0.006 | duvelisib 0.01 | gandotinib -0.208 | [3] -0.152

PHF13 (UniProt Q86YI8)
inactive: alvocidib -0.278 | Tubastatin A 0.01 | [4] 0.128 | lapatinib -0.033 | pictilisib 0.022 | crizotinib -0.235 | [2] -0.517 | gandotinib 0.352 | doramapimod 0.123 | bafetinib -0.113 | [3] 0.479

PHETA1 isoform 4 (UniProt Q8N4B1)
inactive: alvocidib -0.073 | Tubastatin A -0.007 | [2] 0 | gandotinib 0.086 | [3] -0.001

PHC3 isoform 7 (UniProt Q8NDX5)
inactive: alvocidib -0.022 | [5] 0.084 | defactinib 0.044 | [1] 0.02 | encorafenib 0.229 | [6] -0.135 | alisertib 0.136 | [4] 0.058 | gefitinib 0.025 | lapatinib -0.031 | crizotinib 0.06 | [2] -0.044 | duvelisib 0.072 | gandotinib -0.041 | tozasertib 0.133 | doramapimod -0.101 | [3] 0.141

PIAS2 (UniProt O75928)
inactive: Tubastatin A -0.092 | [5] 0.006 | defactinib -0.348 | [1] -0.002 | encorafenib 0.006 | [6] -0.041 | alisertib -0.021 | gefitinib -0.091 | crizotinib -0.045 | duvelisib 0.075 | tozasertib 0.048 | doramapimod -0.007

PIP5K1A (UniProt Q99755)
inactive: alvocidib 0.077 | Tubastatin A -0.043 | [5] 0.027 | [1] -0.074 | alisertib -0.121 | [4] -0.023 | gefitinib -0.024 | lapatinib -0.117 | pictilisib 0.07 | crizotinib -0.168 | [2] 0.03 | duvelisib -0.043 | gandotinib -0.013 | doramapimod 0.093 | bafetinib -0.062 | [3] -0.034

PHF19 isoform 2 (UniProt Q5T6S3)
inactive: alvocidib -0.025 | defactinib 0.092 | encorafenib -0.081 | [6] -0.117 | pictilisib -0.001 | [2] -0.029 | gandotinib -0.093 | tozasertib 0.092 | bafetinib -0.026 | [3] -0.023

PHACTR2 isoform 4 (UniProt O75167)
inactive: alvocidib -0.115 | Tubastatin A 0.106 | [5] 0.014 | [1] 0.199 | encorafenib -0.087 | [6] -0.085 | alisertib 0.031 | [4] 0.094 | gefitinib 0.031 | lapatinib 0.075 | pictilisib -0.028 | crizotinib -0.015 | [2] 0.062 | duvelisib -0.21 | gandotinib -0.2 | tozasertib 0.292 | doramapimod 0.009 | bafetinib 0.093 | [3] 0.03

PKIB isoform 2 (UniProt Q9C010)
inactive: alvocidib 0.103 | Tubastatin A 0.086 | [4] -0.067 | lapatinib 0.088 | [2] 0.12 | gandotinib -0.156 | [3] 0.128

PIGU (UniProt Q9H490)
inactive: alvocidib -0.018 | Tubastatin A 0.126 | [5] -0.042 | defactinib 0.075 | [1] -0.014 | alisertib 0.023 | [4] -0.027 | gefitinib -0.011 | lapatinib -0.1 | pictilisib 0.005 | crizotinib -0.027 | [2] -0.094 | duvelisib -0.027 | gandotinib -0.044 | doramapimod 0.015 | bafetinib -0.122 | [3] 0.148

PLAUR (UniProt Q03405)
inactive: alvocidib -0.01 | [5] 0.249 | [1] -0.046 | encorafenib 0.015 | [6] -0.057 | [2] -0.05 | duvelisib 0.101 | gandotinib 0.123 | tozasertib 0.109 | [3] -0.139

PHC2 isoform 5 (UniProt Q8IXK0)
inactive: alvocidib -0.067 | defactinib 0.125 | encorafenib 0.023 | [6] -0.022 | alisertib 0.102 | gefitinib 0.052 | crizotinib -0.052 | [2] -0.047 | gandotinib 0.029 | tozasertib 0.049 | doramapimod 0.08 | [3] 0

PIK3R3 (UniProt Q92569)
inactive: Tubastatin A 0.002 | alisertib -0.013 | gefitinib 0.121

PIEZO2 isoform 4 (UniProt Q9H5I5)
inactive: [5] 0.001 | encorafenib -0.072 | [6] 0.037 | alisertib 0.014 | [4] -0.095 | gefitinib -0.072 | lapatinib -0.069 | crizotinib -0.041 | tozasertib 0.011 | doramapimod -0.055

PHF19 (UniProt Q5T6S3)
inactive: Tubastatin A 0.027 | [5] 0.063 | alisertib 0.003 | gefitinib 0.078 | crizotinib 0.046 | doramapimod 0.021

Taken from the results shown (6 entries):
PIM2 (UniProt Q9P1W9)
inactive: alvocidib 0.076 | Tubastatin A -0.07 | [1] 0 | alisertib -0.083 | gefitinib -0.201 | [2] 0.006 | duvelisib 0.01 | gandotinib -0.208 | [3] -0.152

PHF13 (UniProt Q86YI8)
inactive: alvocidib -0.278 | Tubastatin A 0.01 | [4] 0.128 | lapatinib -0.033 | pictilisib 0.022 | crizotinib -0.235 | [2] -0.517 | gandotinib 0.352 | doramapimod 0.123 | bafetinib -0.113 | [3] 0.479

PHETA1 isoform 4 (UniProt Q8N4B1)
inactive: alvocidib -0.073 | Tubastatin A -0.007 | [2] 0 | gandotinib 0.086 | [3] -0.001

PHC3 isoform 7 (UniProt Q8NDX5)
inactive: alvocidib -0.022 | [5] 0.084 | defactinib 0.044 | [1] 0.02 | encorafenib 0.229 | [6] -0.135 | alisertib 0.136 | [4] 0.058 | gefitinib 0.025 | lapatinib -0.031 | crizotinib 0.06 | [2] -0.044 | duvelisib 0.072 | gandotinib -0.041 | tozasertib 0.133 | doramapimod -0.101 | [3] 0.141

PIAS2 (UniProt O75928)
inactive: Tubastatin A -0.092 | [5] 0.006 | defactinib -0.348 | [1] -0.002 | encorafenib 0.006 | [6] -0.041 | alisertib -0.021 | gefitinib -0.091 | crizotinib -0.045 | duvelisib 0.075 | tozasertib 0.048 | doramapimod -0.007

PIP5K1A (UniProt Q99755)
inactive: alvocidib 0.077 | Tubastatin A -0.043 | [5] 0.027 | [1] -0.074 | alisertib -0.121 | [4] -0.023 | gefitinib -0.024 | lapatinib -0.117 | pictilisib 0.07 | crizotinib -0.168 | [2] 0.03 | duvelisib -0.043 | gandotinib -0.013 | doramapimod 0.093 | bafetinib -0.062 | [3] -0.034

Next part:

PLEK (UniProt P08567)
inactive: Tubastatin A 0.012 | [5] -0.025 | encorafenib -0.255 | [6] 0.106 | crizotinib -0.06 | tozasertib 0.026 | doramapimod -0.127

PITPNM1 (UniProt O00562)
inactive: Tubastatin A -0.063 | alisertib -0.028 | gefitinib 0.014 | pictilisib -0.1 | crizotinib -0.053 | doramapimod -0.066 | bafetinib 0.055

PIDD1 (UniProt Q9HB75)
inactive: Tubastatin A -0.098 | [1] -0.107 | duvelisib -0.291

PLAU (UniProt P00749)
inactive: Tubastatin A -0.165 | [5] 0.049 | [1] -0.116 | encorafenib 0.056 | [6] -0.009 | alisertib -0.122 | [4] 0.336 | gefitinib 0.145 | lapatinib -0.03 | duvelisib -0.209 | tozasertib 0.14

PHLDB3 (UniProt Q6NSJ2)
inactive: [5] 0.127 | crizotinib -0.014 | doramapimod -0.005

PKLR (UniProt F8W6W2)
inactive: defactinib -0.128

PHGDH, A0A286YFE1
inactive: [1] -0.19 | [4] -0.114 | lapatinib -0.214 | pictilisib 0.114 | duvelisib 0.244 | bafetinib -0.313

PLD6 (UniProt Q8N2A8)
inactive: [1] -0.1 | duvelisib 0.112

PIGM (UniProt Q9H3S5)
inactive: Tubastatin A 0.082 | [5] -0.344 | defactinib 0.03 | encorafenib 0.001 | [6] 0.041 | [4] 0.061 | lapatinib -0.073 | pictilisib 0 | crizotinib -0.049 | tozasertib -0.086 | doramapimod 0.084 | bafetinib -0.11

PHF20 (UniProt Q9BVI0)
inactive: Tubastatin A -0.133 | crizotinib -0.146 | doramapimod 0.017

PIGW (UniProt Q7Z7B1)
inactive: Tubastatin A -0.018 | defactinib 0.008 | [1] -0.028 | alisertib -0.09 | gefitinib 0.061 | crizotinib -0.152 | duvelisib -0.054 | doramapimod -0.05

PLEKHA8 (UniProt Q96JA3)
inactive: Tubastatin A 0.234 | [1] -0.096 | encorafenib 0.355 | [6] -0.066 | alisertib -0.089 | gefitinib 0.064 | duvelisib 0.083 | tozasertib 0.016

PHOSPHO2 (UniProt C9JD35)
inactive: encorafenib 0.018 | [6] -0.36 | crizotinib 0.02 | tozasertib 0.234 | doramapimod -0.084

PIK3AP1 (UniProt Q6ZUJ8)
inactive: Tubastatin A 0.123 | [1] 0.223 | encorafenib -0.176 | [6] 0.156 | pictilisib -0.004 | crizotinib -0.029 | duvelisib 0.086 | tozasertib -0.144 | doramapimod -0.004 | bafetinib -0.05

PICALM (UniProt H0YCY1)
inactive: [5] -0.018

PHLDA2 (UniProt Q53GA4)
inactive: Tubastatin A -0.004 | [5] 0.198 | defactinib -0.128 | [1] 0.151 | crizotinib 0.066 | duvelisib -0.021 | doramapimod 0.007

PIGT, A0A1W2PP13
inactive: alisertib -0.112 | [4] 0.065 | gefitinib 0 | lapatinib -0.06
